{"source": "patent US20170266237A1", "about": "“Generation of Brown Adipose Tissue (BAT) from Mesenchymal Cells” (National University of Singapore, priority 2012, published 2017)", "key": {"UCP1 mRNA": {"test_system": "UCP1 mRNA", "assay": "Quantitative PCR of UCP1 mRNA after forskolin stimulation of adipogenically induced MSCs", "format": "cell-based, human", "conditions": "after 4 hrs", "protocol": "(§1) b) Adipogenic Induction of Mesenchymal Stem Cells (MSC). MSCs were seeded at an initial density of about 10.5×10^4 cells/cm^2 in well plates and grown to confluence. Adipogenic differentiation was induced via three cycles of 4 days of induction, followed by 3 days of maintenance. The basal media used in the differentiation process composed of high glucose Dulbecco's modified Eagle's medium (HG DMEM, Gibco) supplemented with Glutamax, 10% fetal bovine serum, 100 units/ml penicillin and […] streptomycin The standard white adipogenic induction media is supplemented with 3-isobutyl-1methylxanthine (0.5 mM), indomethacin (0.2 mM), dexamethasone (1 μM) and insulin (10 μg/ml). For brown adipocyte differentiation, cells were pre-treated with BMP7 (R&D Systems 354-BP, 125 ng/ml) 3 days prior to induction. […]\ne) Quantitative PCR to assess expression of pan-adipocyte and brown adipocyte genes. […] Real time quantitative polymerase chain reactions (RT-PCR) were performed and monitored on a real-time PCR instrument (Stratagene) using Maxima™ SYBR Green/ROX qPCR Master Mix (K0222, Fermentas). […] Relative gene expression levels were determined using the ΔΔ-Ct method with the geometric mean of human TATA-box binding protein (TBP) and ribosomal phosphoprotein P0 (RPLP0) levels as an endogenous control."}, "[1]": {"test_system": "adipogenically induced mesenchymal stem cells", "assay": "Nile Red adherent cytometry of cytoplasmic lipid accumulation / lipolysis", "format": "cell-based, human", "conditions": "white and brown adipogenically induced MSCs", "protocol": "as §1\nd) Nile Red Adherent Cytometry to assess area of cytoplasmic lipid accumulation. […] Nile Red was viewed under a rhodamine filter [Ex572 nm/Em630 nm] while DAPI fluorescence was assessed with a DAPI filter [Ex350 nm/Em465 nm]. Measured Nile Red events were thresholded and measured by an image analysis software (MetaMorph 6.3v3). Extent of adipogenic differentiation was quantified by area of Nile Red fluorescence from thresholded events normalized to nuclei count based on detected DAPI fluorescence. […]"}, "[2]": {"test_system": "human subcutaneous adipose tissue", "conditions": "type 2 diabetic patients, in vivo; cited from earlier work"}, "[3]": {"test_system": "precursor cells from the epididymal region of mice", "conditions": "chronic treatment; cited from earlier work"}, "[4]": {"test_system": "mature 3T3-L1 white adipocytes", "conditions": "cited from earlier work"}}, "note": "At least one structure is not confirmed: it was looked up by name or label, or the drawing left a doubt.", "data": [{"compound": "C=C[C@@]1(C)CC(=O)[C@]2(O)[C@@]3(C)[C@@H](O)CCC(C)(C)[C@@H]3[C@H](O)[C@H](OC(C)=O)[C@@]2(C)O1", "note": "[forskolin]", "values": [{"measurement": "forskolin response of UCP1 upregulation under macromolecular crowding culture", "setting": "UCP1 mRNA", "value": "two orders of magnitude"}, {"measurement": "lipolysis after forskolin (emptying of lipid deposits)", "setting": "[1]", "value": "leads to emptying of lipid deposits"}]}, {"compound": "CCc1ccc(CCOc2ccc(CC3SC(=O)NC3=O)cc2)nc1", "note": "(centres unmarked) [pioglitazone]", "values": [{"measurement": "mitochondrial biogenesis and thermogenic gene expression", "setting": "[2]", "value": "induced mitochondrial biogenesis"}]}, {"compound": "CN(CCOc1ccc(CC2SC(=O)NC2=O)cc1)c1ccccn1", "note": "(centres unmarked) [rosiglitazone]", "values": [{"measurement": "expression of the thermogenic programme", "setting": "[3]", "value": "promotes the expression of the thermogenic programme"}]}, {"compound": "Cc1c(C)c2c(c(C)c1O)CCC(C)(COc1ccc(CC3SC(=O)NC3=O)cc1)O2", "note": "(centres unmarked) [troglitazone]", "values": [{"measurement": "ucp1 and other BAT gene expression", "setting": "[4]", "value": "upregulated"}]}]}
